{
  "sequences": {"note": "Sequences of proteins named here, by UniProt entry; tags and fusion partners are left off.", "HBA1, P69905, UniProt P69905, whole entry": "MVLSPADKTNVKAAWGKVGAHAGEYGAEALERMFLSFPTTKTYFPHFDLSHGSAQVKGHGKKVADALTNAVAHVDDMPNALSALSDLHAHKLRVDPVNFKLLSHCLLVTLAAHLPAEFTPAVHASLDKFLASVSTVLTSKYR", "TUBB4A, P04350, UniProt P04350, whole entry": "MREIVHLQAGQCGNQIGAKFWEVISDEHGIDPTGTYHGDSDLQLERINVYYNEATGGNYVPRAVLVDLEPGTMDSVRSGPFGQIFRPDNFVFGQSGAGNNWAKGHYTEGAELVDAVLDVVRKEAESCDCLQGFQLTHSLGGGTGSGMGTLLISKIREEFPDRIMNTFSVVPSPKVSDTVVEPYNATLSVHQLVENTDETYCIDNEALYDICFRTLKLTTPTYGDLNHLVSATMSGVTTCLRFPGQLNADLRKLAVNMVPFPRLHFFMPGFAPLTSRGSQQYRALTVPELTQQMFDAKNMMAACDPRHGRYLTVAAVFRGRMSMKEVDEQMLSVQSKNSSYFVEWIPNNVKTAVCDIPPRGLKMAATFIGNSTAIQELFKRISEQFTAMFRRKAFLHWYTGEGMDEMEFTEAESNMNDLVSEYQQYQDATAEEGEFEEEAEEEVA", "NUTF2, P61970, UniProt P61970, whole entry": "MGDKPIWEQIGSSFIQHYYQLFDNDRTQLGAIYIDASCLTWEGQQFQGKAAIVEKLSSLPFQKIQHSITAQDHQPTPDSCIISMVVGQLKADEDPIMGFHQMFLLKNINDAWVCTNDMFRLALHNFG"},
  "source": "the supplement of paper PMC10032668",
  "assay_in_all_cases": "PRISMA enrichment of interactor (LFQ) in peptide spot vs all other peptide spots (log2 fold change); higher = stronger / more specific binding of the interactor to the peptide",
  "key": {"GPN2, Q9H9Y4": {"biological_target": "GPN2, Q9H9Y4", "description": "(§1)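 PRISMA: 221 full-length sORF-encoded peptides (3-15 aa), plus SOS1/GLUT1 control peptides, were spot-synthesized on cellulose membranes in triplicate. Membranes were incubated with HEK293T lysate, and bound proteins were identified by LC-MS/MS with LFQ. Enrichment is the log2 fold change versus all other peptide spots; only significant interactors are listed (cutoff c=6, x0=2.8).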"}, "IARS2, Q9NSE4": {"biological_target": "IARS2, Q9NSE4", "description": "as §1"}, "HBA1, P69905": {"biological_target": "HBA1, P69905", "description": "as §1"}, "OBSL1, O75147": {"biological_target": "OBSL1, O75147", "description": "as §1"}, "POLR3E, Q9NVU0": {"biological_target": "POLR3E, Q9NVU0", "description": "as §1"}, "UTP4, Q969X6": {"biological_target": "UTP4, Q969X6", "description": "as §1"}, "WBP11, Q9Y2W2": {"biological_target": "WBP11, Q9Y2W2", "description": "as §1"}, "HBB, P68871": {"biological_target": "HBB, P68871", "description": "as §1"}, "[1]": {"substrate": "PPIF, P30405", "description": "as §1"}, "PPIL1, Q9Y3C6": {"biological_target": "PPIL1, Q9Y3C6", "description": "as §1"}, "SF3B4, Q15427": {"biological_target": "SF3B4, Q15427", "description": "as §1"}, "HNRNPUL1, Q9BUJ2": {"biological_target": "HNRNPUL1, Q9BUJ2", "description": "as §1"}, "LSM8, O95777": {"biological_target": "LSM8, O95777", "description": "as §1"}, "MICU2, Q8IYU8": {"biological_target": "MICU2, Q8IYU8", "description": "as §1"}, "RAB6A, P20340": {"biological_target": "RAB6A, P20340", "description": "as §1"}, "RMI2, Q96E14": {"biological_target": "RMI2, Q96E14", "description": "as §1"}, "SRSF8, Q9BRL6": {"biological_target": "SRSF8, Q9BRL6", "description": "as §1"}, "TUBB4A, P04350": {"biological_target": "TUBB4A, P04350", "description": "as §1"}, "UBAC2, Q8NBM4": {"biological_target": "UBAC2, Q8NBM4", "description": "as §1"}, "HNRNPUL2-BSCL2": {"biological_target": "HNRNPUL2-BSCL2", "description": "as §1"}, "OXA1L, Q15070": {"biological_target": "OXA1L, Q15070", "description": "as §1"}, "ZCCHC3, Q9NUD5": {"biological_target": "ZCCHC3, Q9NUD5", "description": "as §1"}, "ZRANB2, O95218": {"biological_target": "ZRANB2, O95218", "description": "as §1"}, "HOMER1, Q86YM7": {"biological_target": "HOMER1, Q86YM7", "description": "as §1"}, "NUTF2, P61970": {"biological_target": "NUTF2, P61970", "description": "as §1"}, "SNRNP40, Q96DI7": {"biological_target": "SNRNP40, Q96DI7", "description": "as §1"}, "SPAG9, O60271": {"biological_target": "SPAG9, O60271", "description": "as §1"}},
  "note": "This is one part of the list. Only hits are listed; about a third recur on repeated control peptides.",
  "data": [
    {"binder": "MVSVSAFPA", "note": "[PPP6R3]", "values": [
      {"measurement": "PRISMA enrichment of interactor (log2)", "setting": "GPN2, Q9H9Y4", "value": 4.63},
      {"measurement": "PRISMA enrichment of interactor (log2)", "setting": "IARS2, Q9NSE4", "value": 7.13}
    ]},
    {"binder": "MKTKLNRLLPNIY", "note": "[METTL7A]", "values": [
      {"measurement": "PRISMA enrichment of interactor (log2)", "setting": "HBA1, P69905", "value": 5.06},
      {"measurement": "PRISMA enrichment of interactor (log2)", "setting": "OBSL1, O75147", "value": 6.15},
      {"measurement": "PRISMA enrichment of interactor (log2)", "setting": "POLR3E, Q9NVU0", "value": 4.59},
      {"measurement": "PRISMA enrichment of interactor (log2)", "setting": "UTP4, Q969X6", "value": 4.18},
      {"measurement": "PRISMA enrichment of interactor (log2)", "setting": "WBP11, Q9Y2W2", "value": 5.36}
    ]},
    {"binder": "MSRRDEGPESL", "note": "[SLC39A7]", "values": [
      {"measurement": "PRISMA enrichment of interactor (log2)", "setting": "HBB, P68871", "value": 6.33},
      {"measurement": "PRISMA enrichment of interactor (log2)", "setting": "[1]", "value": 8.36},
      {"measurement": "PRISMA enrichment of interactor (log2)", "setting": "PPIL1, Q9Y3C6", "value": 4.89},
      {"measurement": "PRISMA enrichment of interactor (log2)", "setting": "SF3B4, Q15427", "value": 4.93}
    ]},
    {"binder": "MRHCVPASLSFWQRL", "note": "[GPAT4]", "values": [
      {"measurement": "PRISMA enrichment of interactor (log2)", "setting": "HNRNPUL1, Q9BUJ2", "value": 6.51},
      {"measurement": "PRISMA enrichment of interactor (log2)", "setting": "LSM8, O95777", "value": 4.96},
      {"measurement": "PRISMA enrichment of interactor (log2)", "setting": "MICU2, Q8IYU8", "value": 4.28},
      {"measurement": "PRISMA enrichment of interactor (log2)", "setting": "RAB6A, P20340", "value": 5.35},
      {"measurement": "PRISMA enrichment of interactor (log2)", "setting": "RMI2, Q96E14", "value": 5.38},
      {"measurement": "PRISMA enrichment of interactor (log2)", "setting": "SRSF8, Q9BRL6", "value": 5.87},
      {"measurement": "PRISMA enrichment of interactor (log2)", "setting": "TUBB4A, P04350", "value": 4.21},
      {"measurement": "PRISMA enrichment of interactor (log2)", "setting": "UBAC2, Q8NBM4", "value": 3.91}
    ]},
    {"binder": "MTFSCARRECYFR", "note": "[LINC00909]", "values": [
      {"measurement": "PRISMA enrichment of interactor (log2)", "setting": "HNRNPUL2-BSCL2", "value": 6.01},
      {"measurement": "PRISMA enrichment of interactor (log2)", "setting": "OXA1L, Q15070", "value": 10.1},
      {"measurement": "PRISMA enrichment of interactor (log2)", "setting": "ZCCHC3, Q9NUD5", "value": 4.2},
      {"measurement": "PRISMA enrichment of interactor (log2)", "setting": "ZRANB2, O95218", "value": 5.21}
    ]},
    {"binder": "MYWRPDQKPF", "note": "[GNB1]", "values": [
      {"measurement": "PRISMA enrichment of interactor (log2)", "setting": "HOMER1, Q86YM7", "value": 4.1},
      {"measurement": "PRISMA enrichment of interactor (log2)", "setting": "NUTF2, P61970", "value": 5.34},
      {"measurement": "PRISMA enrichment of interactor (log2)", "setting": "SNRNP40, Q96DI7", "value": 4.34},
      {"measurement": "PRISMA enrichment of interactor (log2)", "setting": "SPAG9, O60271", "value": 4.07}
    ]}
  ]
}
